The data set is described as follows: peptide synthesis. The note with it: whole synthesis.

In the case of “Arg-Pro-Lys-Pro-Gln-Gln-Phe-Phe-Gly-Leu-Met-NH2”, the “final purity (method not given)” value is recorded as 85% or more.

(Values after patent US20220347256A1 (Biosolution Co., Ltd., priority 2019, published 2022).)
